Values from PubChem BioAssay AID743121 (NCATS, 2013).

- Aim: 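Knock-downs that sensitise breast cancer cells to camptothecin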 (primary screen)
- Cell system: MDA-MB-231 cells, a human breast cancer line
- Reagent: single siRNA against human genes, 20 nM siRNA (0.8 pmol per well)
- Time to read-out: 120 h (drug added 48 h after transfection, read 72 h later)
- Challenge: camptothecin 20 nM (about EC30) for 72 h; vehicle 0.1% DMSO in parallel plates
- Detection: 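CellTiter-Glo ATP signal, scaled to control siRNA as percent viability; sensitisation given as log2 of untreated divided by camptothecin-treated viability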
- Reading the numbers: log2 vehicle/camptothecin viability: higher = stronger sensitisation to camptothecin; viability with camptothecin and viability without drug: higher = more viable cells
- Call rule: 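Active genes have an RSA gene-level p-value below 0.001, computed from the ratios of their separate siRNAs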
Shown is one part, drawn at random, of about 26,000 deposited reagents. 167 of them (0.63%) were called active. 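Calls are per gene from RSA p-values that are not deposited; an individual active-marked siRNA can sensitise only weakly.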 Unmarked entries are inactive. The numbers tell different reagents against one gene apart.

Target gene	siRNA no.	log2 vehicle/camptothecin viability	viability with camptothecin (% of control)	viability without drug (% of control)
TCL1A	1	-0.311	84.4	68
TCL1A	2	0.137	91.3	100
TCL1A	3	-0.182	79.5	70
TCL1A	4	-0.118	86.3	79.5
WNK1	1	0.0147	35.1	35.5
WNK1	2	0.408	63.7	84.5
WNK1	3	0.0663	64	67
WNK1	4	-0.359	76	59.3
PBRM1	1	0.00719	106	107
PBRM1	2	-0.26	129	108
PBRM1	3	-0.309	118	95.1
PBRM1	4	0.0813	71.9	76.1
POMC	1	0.0866	58.3	61.9
POMC	2	-0.212	70.8	61.1
POMC	3	-0.337	94.4	74.7
POMC	4	-0.535	69.1	47.7
TGM4	1	-0.572	91.9	61.8
TGM4	2	-0.0634	68.5	65.6
TGM4	3	0.132	84.4	92.4
SREBF2	1	-0.0872	64.3	60.5
SREBF2	2	-0.00662	113	112
SREBF2	3	0.0662	77.5	81.1
SREBF2	4	-0.375	117	90.6
DUSP21	1	0.108	63.4	68.3
DUSP21	2	0.27	46.8	56.4
DUSP21	3	-0.0702	98.2	93.5
CDK5	1	-0.519	98.3	68.6
CDK5	2	-0.298	39.7	32.3
CDK5	3	-0.578	58.7	39.3
CDK5	4	-0.68	99.4	62

As entered above:
TCL1A #1, viability with camptothecin (% of control) = 84.4
Under “viability with camptothecin (% of control)”, WNK1 #3 is entered as 64
TCL1A #2, viability without drug (% of control) = 100
Value for DUSP21 #2 in “viability with camptothecin (% of control)”: 46.8
Under “viability with camptothecin (% of control)”, TCL1A #4 is entered as 86.3
Entry of POMC #3 in “viability without drug (% of control)”: 74.7

The listing continues:
Target gene	siRNA no.	log2 vehicle/camptothecin viability	viability with camptothecin (% of control)	viability without drug (% of control)
CNGA4	1	0.0816	96.5	102
CNGA4	2	0.207	77.4	89.3
CNGA4	3	-0.19	61.9	54.2
CNGA4	4	-0.554	60.4	41.1
SERPINF1	1	-0.133	92.7	84.6
SERPINF1	2	0.242	82	97
SERPINF1	3	-0.239	107	90.3
SERPINF1	4	-0.543	79.5	54.6
IL17F	1	-0.292	87.5	71.5
IL17F	2	-0.0796	105	99.6
IL17F	3	-0.239	107	90.9
IL17F	4	0.173	93.6	106
ELF2	1	0.591	30.1	45.3
ELF2	2	-0.133	58.1	53
ELF2	3	-0.0497	84	81.1
ELF2	4	-0.274	57.6	47.6
EDAR	1	-0.333	65.6	52.1
EDAR	2	-0.268	67.9	56.4
EDAR	3	-0.28	63.8	52.6
EDAR	4	-0.417	92.5	69.3
RAB6B	1	0.93	9.73	18.5
RAB6B	2	-0.327	91	72.5
RAB6B	3	0.155	78.4	87.2
RAB6B	4	0.0709	31.7	33.3
UQCRH	1	-0.134	94	85.7
UQCRH	2	-0.146	100	90.4
UQCRH	3	-0.0233	83.6	82.2
WEE1	1	-0.181	63.8	56.3
WEE1	2	0.135	3.51	3.86
WEE1	3	1.86	7.43	26.9
WEE1	4	-0.444	23.1	17
MED1	1	-0.365	63.5	49.4
MED1	2	-0.242	85.5	72.3
MED1	3	-0.117	57.7	53.2
MED1	4	-0.439	108	79.9
CYP4X1	1	0.238	71.8	84.7
CYP4X1	2	-0.0407	90.2	87.7
CYP4X1	3	0.539	24.5	35.6
CYP4X1	4	-0.492	52.6	37.4
